This test deals with Sallimus (Sls), His/EGFP-tagged protein trap sls^ZCL2144 (Drosophila (endogenous in adult fly thoraces)) (UniProt Q9I7U4). Kind of test: pull-down; extract of 50 adult thoraces (cher^CPTI1399 with sls^ZCL2144); His-tagged Sls held on Ni NTA agarose beads, 3 hours at 4°C; wash 20 mM Tris-HCl pH 8, 150 mM NaCl, 5% glycerol, 0.2% Triton X-100; Cher detected by anti-Flag blot; control: wild type thorax extract.

Sequences of proteins named here, by UniProt entry; tags and fusion partners are left off.
UniProt Q9VEN1: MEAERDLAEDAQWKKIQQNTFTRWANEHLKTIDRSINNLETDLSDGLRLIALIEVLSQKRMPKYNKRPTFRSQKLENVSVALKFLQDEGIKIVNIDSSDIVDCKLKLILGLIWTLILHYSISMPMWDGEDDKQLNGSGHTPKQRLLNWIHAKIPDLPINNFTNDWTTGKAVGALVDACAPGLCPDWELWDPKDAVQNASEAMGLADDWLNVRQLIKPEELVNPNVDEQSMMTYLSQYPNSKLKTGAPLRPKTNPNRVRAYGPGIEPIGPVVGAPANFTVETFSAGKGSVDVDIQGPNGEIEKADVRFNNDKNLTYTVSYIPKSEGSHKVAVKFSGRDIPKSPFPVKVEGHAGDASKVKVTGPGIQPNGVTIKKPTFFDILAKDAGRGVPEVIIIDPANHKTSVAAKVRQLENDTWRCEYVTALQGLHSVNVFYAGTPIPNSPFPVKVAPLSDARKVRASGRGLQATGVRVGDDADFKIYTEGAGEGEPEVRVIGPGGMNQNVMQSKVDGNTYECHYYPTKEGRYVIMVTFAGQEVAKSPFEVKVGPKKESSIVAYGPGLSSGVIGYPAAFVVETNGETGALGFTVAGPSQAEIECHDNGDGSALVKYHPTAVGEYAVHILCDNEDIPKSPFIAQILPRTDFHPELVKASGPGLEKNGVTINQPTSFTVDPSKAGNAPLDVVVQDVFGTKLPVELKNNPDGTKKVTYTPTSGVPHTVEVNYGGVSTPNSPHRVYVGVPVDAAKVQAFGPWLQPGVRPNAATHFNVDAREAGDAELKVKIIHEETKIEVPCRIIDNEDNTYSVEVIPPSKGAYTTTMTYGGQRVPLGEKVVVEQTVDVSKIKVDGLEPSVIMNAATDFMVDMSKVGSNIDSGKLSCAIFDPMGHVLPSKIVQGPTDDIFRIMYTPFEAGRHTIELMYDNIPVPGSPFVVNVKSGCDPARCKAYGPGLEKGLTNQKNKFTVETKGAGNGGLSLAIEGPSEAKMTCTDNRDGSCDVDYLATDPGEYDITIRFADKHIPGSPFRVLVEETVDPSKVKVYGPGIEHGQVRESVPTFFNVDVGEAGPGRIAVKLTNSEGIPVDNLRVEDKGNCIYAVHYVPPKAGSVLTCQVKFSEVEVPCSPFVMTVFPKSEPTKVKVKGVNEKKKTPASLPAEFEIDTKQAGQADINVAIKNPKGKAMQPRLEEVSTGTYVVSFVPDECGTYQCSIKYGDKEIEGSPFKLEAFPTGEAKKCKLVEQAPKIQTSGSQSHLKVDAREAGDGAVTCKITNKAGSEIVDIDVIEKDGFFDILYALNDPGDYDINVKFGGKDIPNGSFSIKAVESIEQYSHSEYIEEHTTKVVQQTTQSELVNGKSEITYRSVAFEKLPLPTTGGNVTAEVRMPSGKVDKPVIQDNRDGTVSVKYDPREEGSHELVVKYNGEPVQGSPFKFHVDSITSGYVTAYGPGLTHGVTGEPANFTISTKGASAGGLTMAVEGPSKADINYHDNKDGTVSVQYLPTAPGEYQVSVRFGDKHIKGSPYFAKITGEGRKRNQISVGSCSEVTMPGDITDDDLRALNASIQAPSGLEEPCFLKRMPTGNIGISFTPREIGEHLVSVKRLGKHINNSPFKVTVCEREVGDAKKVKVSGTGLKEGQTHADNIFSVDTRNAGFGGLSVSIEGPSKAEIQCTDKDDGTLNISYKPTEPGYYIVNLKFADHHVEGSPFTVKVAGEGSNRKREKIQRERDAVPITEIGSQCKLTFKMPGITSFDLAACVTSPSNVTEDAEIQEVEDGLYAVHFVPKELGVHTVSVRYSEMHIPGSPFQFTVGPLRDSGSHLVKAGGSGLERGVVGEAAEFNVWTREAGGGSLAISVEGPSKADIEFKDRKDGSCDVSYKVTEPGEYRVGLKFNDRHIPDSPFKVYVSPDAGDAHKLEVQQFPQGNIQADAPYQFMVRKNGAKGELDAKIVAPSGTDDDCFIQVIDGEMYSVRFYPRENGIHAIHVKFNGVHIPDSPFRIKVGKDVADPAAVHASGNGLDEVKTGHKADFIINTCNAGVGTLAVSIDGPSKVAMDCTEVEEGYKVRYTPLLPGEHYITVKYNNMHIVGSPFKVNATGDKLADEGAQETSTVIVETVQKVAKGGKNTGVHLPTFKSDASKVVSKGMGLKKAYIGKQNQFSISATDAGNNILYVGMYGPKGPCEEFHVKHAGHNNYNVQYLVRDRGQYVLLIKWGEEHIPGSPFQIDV

Results are given in words; binding and its absence hold for the method and conditions named. Binding seen in cells or lysates may run through a third protein. Some entries that bind do so weakly or less than the wild type.

As to “Cheerio (Cher, filamin), Venus-Flag protein trap cher^CPTI1399 (from UniProt Q9VEN1 1-2210)”, the binding result is reported as “binds”.

(Values after article PMC5521747.)
